Measurements taken from article PMC6364870.
No constants are given. Whether binding was seen depends on the method and setting. Binding seen in cells or lysates may run through a third protein. Here binding means that the protein was enriched with, or labelled near, the bait; the list need not be complete.

Sequences of proteins named here, by UniProt entry; tags and fusion partners are left off.
UniProt O54962: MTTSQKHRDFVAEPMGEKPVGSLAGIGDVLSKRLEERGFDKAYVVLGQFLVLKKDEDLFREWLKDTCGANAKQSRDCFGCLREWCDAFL
UniProt Q6DVA0: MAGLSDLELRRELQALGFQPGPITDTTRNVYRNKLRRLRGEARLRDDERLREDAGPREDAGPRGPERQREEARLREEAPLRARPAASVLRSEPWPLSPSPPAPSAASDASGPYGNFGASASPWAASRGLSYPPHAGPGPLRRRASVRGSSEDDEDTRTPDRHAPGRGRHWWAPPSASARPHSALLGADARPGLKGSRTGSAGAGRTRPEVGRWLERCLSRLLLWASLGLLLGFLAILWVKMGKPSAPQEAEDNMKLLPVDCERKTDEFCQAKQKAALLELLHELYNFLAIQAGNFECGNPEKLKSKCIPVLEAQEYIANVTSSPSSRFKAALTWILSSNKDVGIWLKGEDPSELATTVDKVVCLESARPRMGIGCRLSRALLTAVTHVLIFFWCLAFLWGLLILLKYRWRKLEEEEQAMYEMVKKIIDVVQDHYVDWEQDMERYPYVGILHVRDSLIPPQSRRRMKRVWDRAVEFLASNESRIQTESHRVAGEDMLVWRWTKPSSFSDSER
UniProt O09106: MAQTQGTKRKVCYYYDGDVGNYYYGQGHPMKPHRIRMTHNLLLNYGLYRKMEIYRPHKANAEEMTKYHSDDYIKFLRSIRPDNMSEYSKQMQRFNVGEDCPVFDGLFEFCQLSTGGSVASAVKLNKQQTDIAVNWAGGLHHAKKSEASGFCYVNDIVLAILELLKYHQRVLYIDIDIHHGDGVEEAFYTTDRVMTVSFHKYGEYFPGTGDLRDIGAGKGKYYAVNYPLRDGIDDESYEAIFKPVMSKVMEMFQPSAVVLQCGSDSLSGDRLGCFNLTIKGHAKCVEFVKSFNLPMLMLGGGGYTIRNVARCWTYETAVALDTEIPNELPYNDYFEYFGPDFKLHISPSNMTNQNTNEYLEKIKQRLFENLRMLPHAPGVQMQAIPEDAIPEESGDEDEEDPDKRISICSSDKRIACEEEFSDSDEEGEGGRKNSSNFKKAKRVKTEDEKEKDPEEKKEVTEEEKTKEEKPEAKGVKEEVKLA

Assays:
[1] = biological target: T1, SATB2 (mouse (endogenous in cortex)) (UniProt Q8VI24); experiment: affinity purification with mass spectrometry; endogenous SATB2 precipitated with anti-SATB2 on protein G Dynabeads from neonatal mouse cortical lysate (1 mg total protein, overnight 4°C; 25 mM Tris/HCl pH 7.4, 150 mM NaCl, 1% NP-40, 1 mM EDTA, 5% glycerol); Satb2 knock-out lysate as negative …; LC-MS
T1 sequence: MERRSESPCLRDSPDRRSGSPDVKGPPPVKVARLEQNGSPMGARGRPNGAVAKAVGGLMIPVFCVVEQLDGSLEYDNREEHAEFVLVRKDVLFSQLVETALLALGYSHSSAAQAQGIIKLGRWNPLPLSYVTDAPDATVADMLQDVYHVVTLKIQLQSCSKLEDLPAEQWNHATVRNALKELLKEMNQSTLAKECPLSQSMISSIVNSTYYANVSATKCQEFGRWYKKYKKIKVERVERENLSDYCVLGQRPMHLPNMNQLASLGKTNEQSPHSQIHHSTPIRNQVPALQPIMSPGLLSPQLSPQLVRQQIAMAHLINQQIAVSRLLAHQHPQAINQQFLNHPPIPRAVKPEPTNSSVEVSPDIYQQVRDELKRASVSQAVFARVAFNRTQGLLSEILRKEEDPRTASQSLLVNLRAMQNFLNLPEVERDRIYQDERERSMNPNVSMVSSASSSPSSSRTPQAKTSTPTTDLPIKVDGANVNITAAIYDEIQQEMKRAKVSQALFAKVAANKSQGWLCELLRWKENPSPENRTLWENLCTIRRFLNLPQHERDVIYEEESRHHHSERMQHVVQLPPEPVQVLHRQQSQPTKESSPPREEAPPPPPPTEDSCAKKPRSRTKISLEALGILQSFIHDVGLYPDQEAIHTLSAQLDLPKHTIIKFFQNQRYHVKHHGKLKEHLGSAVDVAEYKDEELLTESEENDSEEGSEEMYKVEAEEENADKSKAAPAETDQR

[2] = biological target: T1, SATB2 (mouse (endogenous in cortex)); experiment: affinity purification with mass spectrometry; endogenous SATB2 precipitated with anti-SATB2 on protein G Dynabeads from adult (three month-old) mouse cortical lysate (1 mg total protein, overnight 4°C; 25 mM Tris/HCl pH 7.4, 150 mM NaCl, 1% NP-40, 1 mM EDTA, 5% glycerol); Satb2 knock-out lysate as negative control; LC-MS
[3] = biological target: T1, SATB2 (mouse (endogenous in cortex)); experiment: affinity purification with mass spectrometry; endogenous SATB2 precipitated with anti-SATB2 on protein G Dynabeads from neonatal mouse cortical lysate (1 mg total protein, overnight 4°C; 25 mM Tris/HCl pH 7.4, 150 mM NaCl, 1% NP-40, 1 mM EDTA, 5% glycerol); Satb2 knock-out lysate as negative …; LC-MS; remark: listed apart in the source

For “BAF (barrier-to-autointegration factor) (from UniProt O54962 1-89)”, the binding [1] was “binds”.

LEMD2 (from UniProt Q6DVA0 1-511) was tested, and the binding [1] was “binds”.

“histone deacetylase 1 (HDAC1) (from UniProt O09106 1-482)” was tested, and the binding [2] was “binds” and the binding [1] was “binds”.

In the case of LAP2 (mouse (endogenous in cortex)), the binding [1] is reported as “binds”.

B1: LEMD3 (protein, UniProt Q9WU40 1-921)
chain: MAAATAAAAPQQLSDEELFSQLRRYGLSPGPVTESTRPVYLKKLKKLREEEQQQQQQQQQQQHRAGGRGNKTRNSNNNNTATAMGGRPGSGDLAYLRSPAGLGRLSASAAESPVAGGSGGAAAVPAAGSKVLLGFSSDESDVEASPREQAGGGGGGGARRDRAALQYRGLRAPPAPPAAGEVTGGHPGERRKPHSWWGARRPAGPEPQPPAAGSDGAAEDADEELADGEDRDPEAEEPLWASRAVNGSRLLPYSSCREHYSDSEEEEEEGEEDGDVAPARQVLKDDSLARHRPRRSHSKPFSALTAKSGGSRQETSVQGGGALAMNDRAAAAGSLDRSRNLEEAAAEPGGGGGGGCGCDPVDSIPRYRAGAKKLAPLLSPPSPDGDSTLESPTGPLLKTNNHIGGGAFGVDSPGLYANSLPPGATAAAAPGTLRINHANHTGSNHTYLKTAYGKPKLCEPEEELLQQFKREEVSPTGSFSAHYLSMFLLTAACLFFLILGLTYLGMRGTGVPEDGGLIKNPFDETFGKIQESEKNLLMSTLYKLHDRLAQIAGDHECGSSSQRMLSVQEAAAYLKNLGPEYEDVFNTSLLWIFKNGKDVGIRCVGYGPEEDLTNITDVQFLQSTRPQMPFWCRFRRAFITVTHRLLLLCLGVVLVCVALRYMRYRWTKEEEETRQMYDMVVKIIDVLRSHNEACQETKDLQPYMPLPHVRDSLIQPQDRKKMKKVWDRAVDFLAANESRVRTETRRVGGADFLVWRWIQPSASCDKTLVIPSKVWQGQAFHLDRRNSPPNSLTPCLKIRNMFDPVMEIGDHWHLAIQEAILEKCSDNDGIVHIAVDRNSREGCVYVKCLSPEYAGKAFKALHGSWFDGKLVTVKYLRLDRYHHRFPQALTCNTPLKPANKHMNSLSHLRLRTGLANSQGSS
For B1, the binding [3] was “binds”.
